The results in this text go back to publication PMC7526551 (JCI Insight, 2020).

These are yes or no findings as the source states them, for the method shown. For part of these data: In cells and extracts the contact can be indirect. Some binding calls cover weakened binding; strength is not graded here.

In test [1] the target is T1, NUPR1 (endogenous, MiaPaCa-2 cells) (human (endogenous in MiaPaCa-2)) (UniProt O60356).
T1 sequence: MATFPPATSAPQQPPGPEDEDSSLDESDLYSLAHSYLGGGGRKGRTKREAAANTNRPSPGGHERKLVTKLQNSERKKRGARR
As to the kind of experiment: proximity ligation; Duolink In Situ on fixed, permeabilized MiaPaCa-2 cells (transfected with importin-α3–Flag or NUPR1-Flag, or untransfected); mouse anti-Flag or anti-γH2AX with rabbit anti-NUPR1, anti-MRE11 or anti-TP53; cells untreated or treated with ZZW-115 (5 μM, 6 h; or 1.5 μM, 24 h), 5-FU (10 μM, 24 h) or ….

The target of test [2] is T2, NUPR1 (recombinant, purified) (UniProt O60356).
T2 sequence: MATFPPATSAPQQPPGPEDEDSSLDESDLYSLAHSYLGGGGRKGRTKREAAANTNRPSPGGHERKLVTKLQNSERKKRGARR
As to the kind of experiment: intrinsic fluorescence spectra (complex against the sum of the isolated proteins); 25°C, 10 μM NUPR1 and 5 μM importin-α3, excitation at 280 or 295 nm; both purified.

The target in test [3] is importin-α3 (residues 1–520), recombinant (UniProt O00629). Briefly: ITC; reverse titration: NUPR1 in the syringe, importin-α3 in the calorimetric cell, Tris 50 mM pH 8, 25°C; both purified. (Isothermal titration calorimetry measures the heat released or taken up as one component is titrated into another.)

In the case of “importin-α3–Flag (from UniProt O00629 1-521)”, the binding result in test [1] is “binds”.

B1: importin-α3 (residues 1–520), recombinant (domain or fragment, UniProt O00629 1-520, looked up)
chain: MADNEKLDNQRLKNFKNKGRDLETMRRQRNEVVVELRKNKRDEHLLKRRNVPHEDICEDSDIDGDYRVQNTSLEAIVQNASSDNQGIQLSAVQAARKLLSSDRNPPIDDLIKSGILPILVHCLERDDNPSLQFEAAWALTNIASGTSEQTQAVVQSNAVPLFLRLLHSPHQNVCEQAVWALGNIIGDGPQCRDYVISLGVVKPLLSFISPSIPITFLRNVTWVMVNLCRHKDPPPPMETIQEILPALCVLIHHTDVNILVDTVWALSYLTDAGNEQIQMVIDSGIVPHLVPLLSHQEVKVQTAALRAVGNIVTGTDEQTQVVLNCDALSHFPALLTHPKEKINKEAVWFLSNITAGNQQQVQAVIDANLVPMIIHLLDKGDFGTQKEAAWAISNLTISGRKDQVAYLIQQNVIPPFCNLLTVKDAQVVQVVLDGLSNILKMAEDEAETIGNLIEECGGLEKIEQLQNHENEDIYKLAYEIIDQFFSSDDIDEDPSLVPEAIQGGTFGFNSSANVPTEGFQ
notes: importin-α3 (KPNA4), residues 1–520, codon-optimized synthetic vector (Nzytech); called a 58 kDa protein with 6 tryptophans; also called KPNA4; importin-alpha3; source: final Superdex G200 16/60
For B1, in test [2], the binding entry is recorded as “binds”.

B2: NUPR1 (recombinant, purified) (natural protein, UniProt O60356 1-82, looked up)
chain: MATFPPATSAPQQPPGPEDEDSSLDESDLYSLAHSYLGGGGRKGRTKREAAANTNRPSPGGHERKLVTKLQNSERKKRGARR
notes: Nuclear Protein 1 (NUPR1), described as an intrinsically disordered protein of 82 amino acids with two tyrosines (Tyr30, Tyr36); also called Nuclear Protein 1; rNUPR1; source: expressed and purified as described (12)
In the case of B2, in test [3], the binding result was “binds”.
